Results deposited as PubChem BioAssay AID1259308 (NCATS, 2017)

Aim: 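Candidate targets for better recombinant protein yield in mammalian cells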 (primary screen)
Cells: human HEK293 embryonic kidney cells stably expressing firefly luciferase (HEK-CMV-Luc2-Hygro)
Knock-down reagent: single siRNA against human genes, 0.8 pmol siRNA per well
Time to read-out: 72 h
Detection: 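Reporter luminescence and viable-cell signal on separate replicate plates, given as percent of non-targeting control and median/MAD z-scores, plus per-cell luciferase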
Direction: total luciferase, z-score and total luciferase, % of control: higher = more reporter protein produced; luciferase per cell, z-score: higher = more reporter output per viable cell; viable cells, % of control: higher = more viable cells
Active means: 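Active when the median/MAD z-score for overall luciferase is greater than 3; a gene was taken forward for validation with new siRNAs if at least two of its three siRNAs passed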
Calls: active = raised luciferase; inactive = no rise
In all, the deposit lists about 59,000 reagents; below is a random part of them. Over the whole deposit, about 1,510 (2.6%) got an active call. 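Calls use total luciferase alone and ignore viability, so some active siRNAs may act by altering cell number.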 Reagents against one gene are numbered here.

| gene | reagent no. | total luciferase, z-score | total luciferase, % of control | luciferase per cell, z-score | viable cells, % of control | Call |
| --- | --- | --- | --- | --- | --- | --- |
| MTHFSD | 1 | 3.11 | 144 | 2.39 | 85.7 | active |
| MTHFSD | 2 | 0.321 | 88.3 | 0.513 | 86.2 | inactive |
| MTHFSD | 3 | 0.581 | 93.4 | -0.38 | 115 | inactive |
| GGNBP2 | 1 | 0.113 | 84.1 | 0.383 | 85 | inactive |
| GGNBP2 | 2 | -0.877 | 64.4 | -1.19 | 98.4 | inactive |
| GGNBP2 | 3 | 3.32 | 148 | 1.34 | 116 | active |
| REG3G | 1 | 0.899 | 99.8 | 0.63 | 94.4 | inactive |
| REG3G | 2 | 0.885 | 99.5 | 0.54 | 96.4 | inactive |
| REG3G | 3 | 0.437 | 90.6 | 2.14 | 57.6 | inactive |
| TSPYL6 | 1 | 0.965 | 101 | 1 | 86.7 | inactive |
| TSPYL6 | 2 | -0.594 | 70.1 | -0.701 | 94.2 | inactive |
| TSPYL6 | 3 | 1.62 | 114 | 1.56 | 84.4 | inactive |
| INPPL1 | 1 | 1.02 | 102 | 1.29 | 81.3 | inactive |
| INPPL1 | 2 | 1.19 | 106 | 0.907 | 92.9 | inactive |
| INPPL1 | 3 | 0.438 | 90.6 | 0.384 | 91.5 | inactive |
| PPM1M | 1 | 0.975 | 101 | 0.975 | 87.5 | inactive |
| PPM1M | 2 | 0.757 | 96.9 | -0.0503 | 110 | inactive |
| PPM1M | 3 | -0.543 | 71.1 | -0.838 | 99 | inactive |
| SAA2 | 1 | 1.27 | 107 | 1.08 | 90.1 | inactive |
| SAA2 | 2 | -0.455 | 72.8 | -0.397 | 90.4 | inactive |
| SAA2 | 3 | 0.268 | 87.2 | -0.601 | 114 | inactive |
| GKN1 | 1 | 0.418 | 90.2 | 0.0758 | 98.8 | inactive |
| GKN1 | 2 | -0.0607 | 80.7 | 1.01 | 69.1 | inactive |
| GKN1 | 3 | -0.143 | 79 | -0.386 | 97.8 | inactive |
| MAP3K21 | 1 | 0.854 | 98.9 | 0.541 | 95.8 | inactive |
| MAP3K21 | 2 | 1.96 | 121 | 1.68 | 86.8 | inactive |
| MAP3K21 | 3 | 1.64 | 114 | 1.54 | 85.3 | inactive |
| OR51Q1 | 1 | -0.702 | 67.9 | -0.273 | 81.6 | inactive |
| OR51Q1 | 2 | -0.25 | 76.9 | 0.438 | 76.6 | inactive |
| OR51Q1 | 3 | -0.749 | 67 | -0.725 | 90.6 | inactive |
| KAT2A | 1 | -0.249 | 76.9 | 0.366 | 78.1 | inactive |
| KAT2A | 2 | -0.173 | 78.4 | -0.205 | 92.5 | inactive |
| KAT2A | 3 | -1.22 | 57.6 | -1.55 | 96.8 | inactive |
| GEMIN6 | 1 | 2.3 | 128 | 1.85 | 87.7 | inactive |
| GEMIN6 | 2 | -0.714 | 67.7 | -1.11 | 101 | inactive |
| GEMIN6 | 3 | -0.195 | 78 | 0.0188 | 86.7 | inactive |
| PIWIL3 | 1 | -0.844 | 65.1 | -0.278 | 78.3 | inactive |
| PIWIL3 | 2 | -0.488 | 72.2 | -0.352 | 88.5 | inactive |
| PIWIL3 | 3 | -0.721 | 67.6 | 0.461 | 66.9 | inactive |
| CRB3 | 1 | 1.14 | 105 | 0.613 | 99.4 | inactive |
| CRB3 | 2 | -1.53 | 51.5 | -1.55 | 86.6 | inactive |
| CRB3 | 3 | 0.65 | 94.8 | 0.249 | 99.2 | inactive |
| EXT1 | 1 | 0.602 | 93.9 | 0.0964 | 102 | inactive |
| EXT1 | 2 | 0.141 | 84.7 | -0.365 | 104 | inactive |
| EXT1 | 3 | -0.595 | 70.1 | -1.06 | 104 | inactive |
| SARS1 | 1 | 0.46 | 91 | 0.624 | 86.3 | inactive |
| SARS1 | 2 | 0.51 | 92 | 0.0181 | 102 | inactive |
| SARS1 | 3 | -1.21 | 57.8 | -1.4 | 93.3 | inactive |
| GADL1 | 1 | 1.13 | 104 | 0.124 | 113 | inactive |
| GADL1 | 2 | -3.02 | 21.7 | -2.88 | 51.8 | inactive |
| GADL1 | 3 | -0.303 | 75.9 | -0.409 | 94.4 | inactive |
| NARS2 | 1 | 1.41 | 110 | 1.28 | 87.6 | inactive |
| NARS2 | 2 | -1.13 | 59.4 | -0.677 | 79.3 | inactive |
| NARS2 | 3 | 3.28 | 147 | 2.15 | 93.2 | active |
| ATP8A2 | 1 | 1.44 | 110 | 1.03 | 94 | inactive |
| ATP8A2 | 2 | 0.0862 | 83.6 | 0.0957 | 91.1 | inactive |
| ATP8A2 | 3 | 0.224 | 86.3 | 0.000616 | 96.5 | inactive |
| SOD1 | 1 | -1.37 | 54.7 | -0.933 | 78.2 | inactive |
| SOD1 | 2 | 0.685 | 95.5 | 0.633 | 90.4 | inactive |
| SOD1 | 3 | 1.75 | 117 | 1.8 | 81.3 | inactive |
| ABAT | 1 | 0.325 | 88.4 | -0.0303 | 99.5 | inactive |
| ABAT | 2 | -1.13 | 59.4 | -1.19 | 90.9 | inactive |
| ABAT | 3 | -0.368 | 74.6 | -0.545 | 96.2 | inactive |
| PTTG1 | 1 | -0.789 | 66.2 | -1.24 | 103 | inactive |
| PTTG1 | 2 | 1.52 | 112 | 0.475 | 111 | inactive |
| PTTG1 | 3 | 0.12 | 84.3 | 0.197 | 89.4 | inactive |
| NDE1 | 1 | 1.45 | 111 | 1.1 | 92.6 | inactive |
| NDE1 | 2 | 1.51 | 112 | 1.32 | 88.4 | inactive |
| NDE1 | 3 | 0.0959 | 83.8 | 0.082 | 91.6 | inactive |
| VEGFB | 1 | 0.192 | 85.7 | 0.659 | 80.5 | inactive |
| VEGFB | 2 | -0.785 | 66.3 | -0.761 | 90.5 | inactive |
| VEGFB | 3 | 1.21 | 106 | 1.48 | 80.3 | inactive |
| EMID1 | 1 | 0.0642 | 83.2 | 0.0758 | 91.1 | inactive |
| EMID1 | 2 | -0.0926 | 80 | -0.367 | 98.5 | inactive |
| EMID1 | 3 | 0.369 | 89.2 | -0.633 | 118 | inactive |

Called active, of those listed so far:
| gene | reagent no. | total luciferase, z-score | total luciferase, % of control | luciferase per cell, z-score | viable cells, % of control | Call |
| --- | --- | --- | --- | --- | --- | --- |
| MTHFSD | 1 | 3.11 | 144 | 2.39 | 85.7 | active |
| GGNBP2 | 3 | 3.32 | 148 | 1.34 | 116 | active |
| NARS2 | 3 | 3.28 | 147 | 2.15 | 93.2 | active |
